Data: PMC4215230
No constants are given. Whether binding was seen depends on the method and setting. Some entries that bind do so weakly or less than the wild type.

Protein sequences, listed by entry. Tags and fused reporters are not part of them. Lines headed by an entry give the natural chain unless they say otherwise; changes in a name come on top. Chains listed by the source or under a name are the forms on record and can include a tag or linker. Residues count along the entry.
UniProt P98066: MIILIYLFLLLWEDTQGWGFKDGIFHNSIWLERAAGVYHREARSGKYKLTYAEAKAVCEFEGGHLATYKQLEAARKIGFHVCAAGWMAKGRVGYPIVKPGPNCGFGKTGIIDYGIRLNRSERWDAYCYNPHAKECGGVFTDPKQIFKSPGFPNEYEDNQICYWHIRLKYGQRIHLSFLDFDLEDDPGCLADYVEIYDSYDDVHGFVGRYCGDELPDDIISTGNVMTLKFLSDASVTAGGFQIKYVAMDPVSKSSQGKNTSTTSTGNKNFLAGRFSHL
Full-length recombinant human TSG-6 (rhTSG-6): residues 18-277 of P98066
Wild type human TSG-6 Link module (Link_TSG6): residues 36-129 of P98066
Recombinant human PTX3 8-mer (pentraxin 3, wild type) (P26022, residues 18-381): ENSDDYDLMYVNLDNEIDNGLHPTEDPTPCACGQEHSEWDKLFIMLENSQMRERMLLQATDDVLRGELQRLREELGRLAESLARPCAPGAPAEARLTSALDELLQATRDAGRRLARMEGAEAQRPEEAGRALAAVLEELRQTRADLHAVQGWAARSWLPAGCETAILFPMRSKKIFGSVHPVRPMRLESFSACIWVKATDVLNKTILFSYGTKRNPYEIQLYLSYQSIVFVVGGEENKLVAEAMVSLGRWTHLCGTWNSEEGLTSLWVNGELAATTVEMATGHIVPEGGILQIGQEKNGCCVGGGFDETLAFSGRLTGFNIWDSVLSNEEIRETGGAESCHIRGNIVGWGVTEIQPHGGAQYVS
Dimer-forming mutant of the PTX3 N-terminal domain (N_PTX3_MUT) (P26022, form named): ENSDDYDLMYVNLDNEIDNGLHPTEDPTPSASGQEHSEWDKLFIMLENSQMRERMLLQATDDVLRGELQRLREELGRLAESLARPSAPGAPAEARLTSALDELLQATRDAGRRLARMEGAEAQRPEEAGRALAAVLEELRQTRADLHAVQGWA

What was measured:
[1] = target: Biotinylated Link_TSG6 (b-Link_TSG6; species A) (human) (UniProt P98066); experiment: QCM-D (quartz crystal microbalance with dissipation monitoring); b-Link_TSG6 immobilised on a streptavidin monolayer; PTX3 constructs flowed over, then buffer rinse; 23 °C; HEPES buffer (150 mM NaCl, 10 mM HEPES, pH 7.4, 2 mM CaCl2, 5 mM MgCl2); no HA; both purified
[2] = target: Wild type human TSG-6 Link module (Link_TSG6) (human) (UniProt P98066); experiment: spectroscopic ellipsometry; sequential binding: end-grafted HA film (837 kDa) first loaded with Link_TSG6 (5 μM) or rhTSG-6, free TSG-6 protein kept in solution, then PTX3 added (0.3 μM monomer); MNB4 antibody as probe for PTX3; HEPES buffer pH 7.4; both purified
[3] = target: Wild type human TSG-6 Link module (Link_TSG6) (human) (UniProt P98066); experiment: spectroscopic ellipsometry; titration of Link_TSG6 or rhTSG-6 into an HA film with a constant amount of PTX3 (0.3 or 1 μM) in the solution phase, compared with no PTX3; HEPES buffer pH 7.4; both purified
[4] = target: Full-length recombinant human TSG-6 (rhTSG-6) (human) (UniProt P98066); experiment: as above

Row | binding [1] | binding [2] | binding [3] | binding [4] | Substance
1 | binds | – | – | – | Dimer-forming mutant of the PTX3 N-terminal domain (N_PTX3_MUT) (from UniProt P26022 18-170) (domain or fragment)
2 | binds | binds | binds | binds | Recombinant human PTX3 8-mer (pentraxin 3, wild type) (from UniProt P26022 18-381)
